Some of the results follow. Many values rest on one well or one pass, so single values are uncertain.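 The apoptosis fraction was the count of cleaved-PARP antibody-stained nuclei relative to all DNA-stained nuclei, imaged in 1,536-well plates. Screening doses were set so most cells survived, and baseline and induced cleaved-PARP levels vary greatly across cell lines.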
Experiments:
Assay in all cases: cleaved PARP positive nuclei fraction relative to DMSO control; melanoma cells; higher = more apoptosis
Conditions in all cases: library dose: low library concentration; 72 h
MZ2-MEL = test system: MZ2-MEL
MeWo = test system: MeWo
RPMI7951 = test system: RPMI7951
RVH-421 = test system: RVH-421
SkMel28 = test system: SkMel28
SkMel30 = test system: SkMel30
UACC62 = test system: UACC62
WM115 = test system: WM115
WM1716 = test system: WM1716
WM1745 = test system: WM1745
WM3526 = test system: WM3526
WM3619 = test system: WM3619
WM451Lu = test system: WM451Lu
SkMel2 = test system: SkMel2
SkMel5 = test system: SkMel5
UACC257 = test system: UACC257

| SMILES | cleaved PARP positive nuclei fraction (MZ2-MEL) | cleaved PARP positive nuclei fraction (MeWo) | cleaved PARP positive nuclei fraction (RPMI7951) | cleaved PARP positive nuclei fraction (RVH-421) | cleaved PARP positive nuclei fraction (SkMel28) | cleaved PARP positive nuclei fraction (SkMel30) | cleaved PARP positive nuclei fraction (UACC62) | cleaved PARP positive nuclei fraction (WM115) | cleaved PARP positive nuclei fraction (WM1716) | cleaved PARP positive nuclei fraction (WM1745) | cleaved PARP positive nuclei fraction (WM3526) | cleaved PARP positive nuclei fraction (WM3619) | cleaved PARP positive nuclei fraction (WM451Lu) | cleaved PARP positive nuclei fraction (SkMel2) | cleaved PARP positive nuclei fraction (SkMel5) | cleaved PARP positive nuclei fraction (UACC257) |
| --- | --- | --- | --- | --- | --- | --- | --- | --- | --- | --- | --- | --- | --- | --- | --- | --- |
| O=c1[nH]nc(Sc2ncc([N+](=O)[O-])s2)n1-c1ccc2c(c1)OCCO2 + Cc1cc(Nc2cc(N3CCN(C)CC3)nc(/C=C/c3ccccc3)n2)n[nH]1 [ENMD2076] (first compound 0.2 µM, partner dose 0.04 µM) | 73.2% | 54% | 70.9% | 87.9% | 73.5% | 96.3% | 35% | 120% | 39.2% | 94.6% | 34% | 69.6% | 83.5% | – | – | – |
| COc1cc([C@@H]2c3cc4c(cc3[C@@H](O[C@@H]3O[C@@H]5CO[C@@H](C)O[C@H]5[C@H](O)[C@H]3O)[C@H]3COC(=O)[C@H]23)OCO4)cc(OC)c1O [etoposide] + CO[C@H]1C[C@@H]2CC[C@@H](C)[C@@](O)(O2)C(=O)C(=O)N2CCCC[C@H]2C(=O)O[C@H]([C@H](C)C[C@@H]2CC[C@@H](OCCO)[C@H](OC)C2)CC(=O)[C@H](C)/C=C(\C)[C@@H](O)[C@@H](OC)C(=O)[C@H](C)C[C@H](C)/C=C/C=C/C=C/1C [everolimus] (first compound 0.02 µM, partner dose 0.02 µM) | 99.5% | 125% | 58.2% | 171% | 147% | 25.6% | 294% | 109% | 45.3% | 103% | 73.4% | 144% | 41.3% | – | – | – |
| Cc1cc(Nc2cc(N3CCN(C)CC3)nc(Sc3ccc(NC(=O)C4CC4)cc3)n2)n[nH]1 [Tozasertib] + Nc1cccc2c1CN(C1CCC(=O)NC1=O)C2=O [lenalidomide] (first compound 0.006 µM, partner dose 1 µM) | 154% | 52.3% | 84.3% | 36.8% | 45.6% | 39.5% | 60.4% | 204% | 99.2% | 114% | 87.9% | 94% | 84.6% | – | – | – |
| COc1cc([C@@H]2c3cc4c(cc3[C@@H](O[C@@H]3O[C@@H]5CO[C@@H](C)O[C@H]5[C@H](O)[C@H]3O)[C@H]3COC(=O)[C@H]23)OCO4)cc(OC)c1O [etoposide] + COC(=O)c1sccc1S(=O)(=O)Nc1ccc(Nc2ccccc2)cc1OC [GSK0660] (first compound 0.02 µM, partner dose 1 µM) | – | 91.9% | 60.9% | 69.7% | 110% | 51.4% | – | 147% | 146% | 82.5% | 75.8% | 99.8% | 34.9% | 61.1% | 78.2% | 193% |
| Cc1cn(-c2cc(NC(=O)c3ccc(C)c(Nc4nccc(-c5cccnc5)n4)c3)cc(C(F)(F)F)c2)cn1 [nilotinib] + Nc1nc(F)nc2c1ncn2[C@@H]1O[C@H](CO)[C@@H](O)[C@@H]1O [fludarabine] (first compound 0.2 µM, partner dose 0.2 µM) | 104% | 409% | 101% | 251% | 259% | 427% | 109% | 259% | 71.3% | 89.4% | 632% | 111% | 159% | – | – | – |
| O=C(Nc1cc(C(F)(F)F)cc(C(F)(F)F)c1)c1cc(Cl)ccc1O + CCCCCCCCc1ccc(CCC(N)(CO)CO)cc1 [fingolimod] (first compound 0.016 µM, partner dose 2 µM) | 89% | 71.1% | 192% | 47.7% | 85.1% | 44.2% | 63% | 122% | 35% | 78.2% | 81.1% | 89.6% | 140% | – | – | – |
| N#CC[C@H](C1CCCC1)n1cc(-c2ncnc3[nH]ccc23)cn1 [ruxolitinib] + Cn1sc(=O)n(Cc2ccccc2)c1=O [TDZD-8] (first compound 1 µM, partner dose 0.4 µM) | – | 77% | 42% | 58.7% | 32.9% | 77.8% | 75.4% | 114% | 82.3% | 88.9% | 77.6% | 94.6% | 77.6% | – | – | – |
| O=C(Nc1cc(C(F)(F)F)cc(C(F)(F)F)c1)c1cc(Cl)ccc1O + CC(=O)O[C@@]12CO[C@@H]1C[C@H](O)[C@@]1(C)C(=O)[C@H](O)C3=C(C)[C@@H](OC(=O)[C@H](O)[C@@H](NC(=O)OC(C)(C)C)c4ccccc4)C[C@@](O)([C@@H](OC(=O)c4ccccc4)[C@H]21)C3(C)C [Docetaxel] (first compound 0.016 µM, partner dose 0.0001 µM) | – | 358% | 430% | 125% | 127% | 368% | 261% | 213% | 157% | 128% | 86.7% | 219% | 146% | – | – | – |
| O=c1[nH]nc(Sc2ncc([N+](=O)[O-])s2)n1-c1ccc2c(c1)OCCO2 + C=CCn1c(=O)c2cnc(Nc3ccc(N4CCN(C)CC4)cc3)nc2n1-c1cccc(C(C)(C)O)n1 [MK1775] (first compound 0.2 µM, partner dose 0.02 µM) | – | 104% | 165% | 138% | 30.7% | 74.7% | 44.5% | 105% | 84.2% | 103% | 114% | 99.3% | 253% | – | 40% | 122% |
| O=C(/C=C/c1cccnc1)NCCCCC1CCN(C(=O)c2ccccc2)CC1 + CCN(CC)CCCCNc1ncc2cc(-c3cc(OC)cc(OC)c3)c(NC(=O)NC(C)(C)C)nc2n1 [PD173074] (first compound 0.01 µM, partner dose 0.1 µM) | – | 83.3% | 220% | 60.2% | 88.9% | 48.9% | 110% | 20.7% | 73.1% | 84% | 24.6% | 92.8% | 19.1% | – | 84.7% | 92% |
| O=C(Nc1cc(C(F)(F)F)cc(C(F)(F)F)c1)c1cc(Cl)ccc1O + Cn1c(Nc2ccc(C(F)(F)F)cc2)nc2cc(Oc3ccnc(-c4ncc(C(F)(F)F)[nH]4)c3)ccc21 [CHIR265] (first compound 0.016 µM, partner dose 0.08 µM) | – | 145% | 140% | 360% | 167% | 125% | 107% | 573% | 69% | 118% | 173% | 111% | 45.6% | 76.8% | – | – |
| O=c1[nH]nc(Sc2ncc([N+](=O)[O-])s2)n1-c1ccc2c(c1)OCCO2 + CS(=O)(=O)c1ccc(C(=O)Nc2ccc(Cl)c(-c3ccccn3)c2)c(Cl)c1 [vismodegib] (first compound 0.2 µM, partner dose 1 µM) | – | 94% | 49% | 292% | 107% | 48.3% | 188% | 22.3% | 252% | 82.2% | 85.5% | 70.7% | 112% | – | – | – |
| N#CC[C@H](C1CCCC1)n1cc(-c2ncnc3[nH]ccc23)cn1 [ruxolitinib] + NC1(c2ccc(-c3nc4ccn5c(=O)[nH]nc5c4cc3-c3ccccc3)cc2)CCC1 [MK2206] (first compound 1 µM, partner dose 0.4 µM) | – | 51.3% | 147% | 96.7% | 240% | 81.6% | 112% | 158% | 200% | 110% | 91.3% | 95.6% | 95.6% | 122% | – | – |
| O=C(/C=C/c1cccnc1)NCCCCC1CCN(C(=O)c2ccccc2)CC1 + NCC(=O)Nc1ccc(-n2nc(C(F)(F)F)cc2-c2ccc3c(ccc4ccccc43)c2)cc1 [OSU03012] (first compound 0.01 µM, partner dose 1 µM) | – | 145% | 103% | 49.1% | 190% | 210% | 82.3% | 179% | 124% | 88.2% | 114% | 104% | 48.7% | – | 103% | 71.6% |
| Cc1ccc(Nc2nccc(N(C)c3ccc4c(C)n(C)nc4c3)n2)cc1S(N)(=O)=O [Pazopanib] + CC(C)CCN1c2nc(Nc3cc(F)c(O)c(F)c3)ncc2N(C)C(=O)C1C [BID1870] (first compound 0.4 µM, partner dose 0.2 µM) | – | 27% | 153% | 74.4% | 230% | 184% | 71.9% | 50.9% | 117% | 94.3% | 152% | 108% | 37.2% | – | 83.6% | 192% |
| O=C(Nc1cc(C(F)(F)F)cc(C(F)(F)F)c1)c1cc(Cl)ccc1O + Nc1ccn([C@@H]2O[C@H](CO)[C@@H](O)C2(F)F)c(=O)n1 [gemcitabine] (first compound 0.016 µM, partner dose 0.0004 µM) | – | 12.7% | 64.8% | 84% | 85.7% | 92.4% | 40.3% | 111% | 78.9% | 115% | 77.2% | 107% | 83.1% | – | – | – |
| O=c1[nH]nc(Sc2ncc([N+](=O)[O-])s2)n1-c1ccc2c(c1)OCCO2 + Nc1nc(F)nc2c1ncn2[C@@H]1O[C@H](CO)[C@@H](O)[C@@H]1O [fludarabine] (first compound 0.2 µM, partner dose 0.2 µM) | – | 532% | 141% | 107% | 71.2% | 1520% | 355% | 240% | 104% | 115% | 619% | 105% | 169% | 913% | – | – |
| O=c1[nH]nc(Sc2ncc([N+](=O)[O-])s2)n1-c1ccc2c(c1)OCCO2 + CS(=O)(=O)CCNCc1ccc(-c2ccc3ncnc(Nc4ccc(OCc5cccc(F)c5)c(Cl)c4)c3c2)o1 [lapatinib] (first compound 0.2 µM, partner dose 0.8 µM) | – | 75% | 81.8% | 74.9% | 64.8% | 50.4% | 65.1% | 125% | 173% | 92.8% | 162% | 88.3% | 60.1% | 129% | – | – |

Part of the list above, limited to cleaved PARP positive nuclei fraction (RVH-421):
SMILES,cleaved PARP positive nuclei fraction (RVH-421)
"O=c1[nH]nc(Sc2ncc([N+](=O)[O-])s2)n1-c1ccc2c(c1)OCCO2 + CS(=O)(=O)c1ccc(C(=O)Nc2ccc(Cl)c(-c3ccccn3)c2)c(Cl)c1 [vismodegib] (first compound 0.2 µM, partner dose 1 µM)",292%
"N#CC[C@H](C1CCCC1)n1cc(-c2ncnc3[nH]ccc23)cn1 [ruxolitinib] + NC1(c2ccc(-c3nc4ccn5c(=O)[nH]nc5c4cc3-c3ccccc3)cc2)CCC1 [MK2206] (first compound 1 µM, partner dose 0.4 µM)",96.7%

From the supplement of paper PMC4604168 (melanoma cell lines)
